Assay results: the supplement of paper PMC10338343
± gives the standard deviation. The list shows a part of the results, in another mix than the full data. The uncertainty is large for many entries. Some of the results follow.

Legend:
[1] = test system: MILI (PIWIL2) piRISC loaded with L1MC piRNA (26 nt); assay: pre-steady-state target cleavage rate (min^-1); higher = faster piRNA-guided slicing of the target; conditions: guide: L1MC piRNA 5'p-UAACUAAAUACUAUGCAAGCUGUAGG
In short: (§1)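 Sequencing of uncleaved targets, normalised to depth and to weakly complementary targets, was the readout of this Cleave-'n-Seq assay. A transcribed, DNA-blocked target RNA library (0.1 nM) was mixed with 1 nM active affinity-purified piRISC carrying one synthetic guide, with or without 500 nM GTSF1 partner protein, in HEPES–potassium acetate buffer at 33 °C for 0–8 or 0–960 min. Three trials were pooled, k3 was capped at 0.0001 min^-1, and a burst-and-steady-state fit gave the pre-steady-state cleavage rate.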

[2] = test system: EfPiwi piRISC loaded with L1MC piRNA (26 nt); assay: pre-steady-state target cleavage rate (min^-1); guide: L1MC piRNA 5'p-UAACUAAAUACUAUGCAAGCUGUAGG; higher = faster piRNA-guided slicing of the target
In short: as §1

[3] = test system: MIWI (PIWIL1) piRISC loaded with L1MC piRNA (30 nt); assay: pre-steady-state target cleavage rate (min^-1); MIWI and MILI are mouse PIWI proteins and EfPiwi is from a freshwater sponge; tags in brackets are library labels; higher = faster piRNA-guided slicing of the target; conditions: guide: L1MC piRNA 5'p-UAACUAAAUACUAUGCAAGCUGUAGGUCCU; auxiliary factor: none (no GTSF1)
In short: as §1

[4] = auxiliary factor: 500 nM mouse GTSF1
[5] = auxiliary factor: none (no GTSF1)
[6] = auxiliary factor: 500 nM Ephydatia muelleri Gtsf1
[7] = auxiliary factor: none (no Gtsf1)

| Sequence | pre-steady-state target cleavage rate [1, 4] | pre-steady-state target cleavage rate [1, 5] | pre-steady-state target cleavage rate [2, 6] | pre-steady-state target cleavage rate [2, 7] | pre-steady-state target cleavage rate [3] |
| --- | --- | --- | --- | --- | --- |
| UCCUGGAUCUGCUUGCAUUGUAUUUAGUUA | 0.159 ± 0.015 | 0.00477 ± 0.0023 | 0.00657 ± 0.003 | 0.000589 ± 0.018 | – |
| UCCUCCUACAGCUUGCAUAGGAUUUAGUUA | 0.0118 ± 0.0044 | 0.0015 ± 0.0032 | 0.0113 ± 0.0028 | 0.00638 ± 0.0035 | – |
| UCCUGGAACAGCUUGCAUAGUAUUAACUUA | 0.0356 ± 0.0096 | 0.00123 ± 0.0043 | 0.000962 ± 0.0047 | 0.000196 ± 0.043 | – |
| UCCUGCUACAGCAUGCAUAGUAUUUUGUUA | 0.167 ± 0.029 | 0.00333 ± 0.0032 | 0.00422 ± 0.002 | 0.000554 ± 0.0097 | – |
| UCCUGGAUGUGCUUGCAUAGUAUUUAGUCA | 0.117 ± 0.018 | 0.00487 ± 0.0035 | 0.00263 ± 0.0019 | 0.000489 ± 0.017 | – |
| UCCUGGAACAGCUUGCAUAGUUAUUAGUUA | 0.0369 ± 0.0099 | 0.00268 ± 0.0034 | 0.00251 ± 0.0017 | 0.000907 ± 0.0079 | – |
| UCCUGGAACAGCUUGGAUAGUAUUUACUUA | 0.0413 ± 0.012 | 0.00198 ± 0.0036 | 0.000665 ± 0.0039 | 0.000254 ± 0.026 | – |
| UCCUGGUUGAGCUUGCAUAGUAUUUAGUAA | 0.196 ± 0.022 | 0.00595 ± 0.0027 | 0.00604 ± 0.0023 | 0.000652 ± 0.018 | – |
| UCCUGGUACAGCUAGCAUAGAAUUUAGUUA | 0.313 ± 0.084 | 0.00285 ± 0.0039 | 0.000943 ± 0.01 | 0.000156 ± 0.054 | – |
| UCCUGGAUCAGCUUGCAUAGUAUUGUAGUUA | 0.176 ± 0.018 | 0.00992 ± 0.0032 | 0.00652 ± 0.0027 | 0.00172 ± 0.0059 | – |
| UCCUGCUACUGCUUGCAUAGAAUUUAGUUA | 0.045 ± 0.0093 | 0.00256 ± 0.002 | 0.00563 ± 0.002 | 0.000963 ± 0.0059 | – |
| UCCUGGAUGUCGAUGCAUAGUAUUUAGAAA | 0.0516 ± 0.015 | 0.00104 ± 0.0058 | 0.00216 ± 0.0032 | 0.000529 ± 0.011 | – |
| UCCUGCUUCAGCAUGCAUAGUAUUUAGUUA | 0.291 ± 0.015 | 0.0121 ± 0.0034 | 0.0186 ± 0.0047 | 0.000522 ± 0.011 | – |
| UCCUGGAUGUCGAAGCAUAGUAUUCAGUUA | 0.00908 ± 0.0042 | 0.000999 ± 0.0047 | 0.000266 ± 0.0094 | 0.000364 ± 0.016 | – |
| UCCUGGUACAGCUUGCAUAGUAUUAUCAAA | 0.0127 ± 0.0058 | 0.00149 ± 0.0038 | 0.00129 ± 0.0031 | 0.000346 ± 0.019 | – |
| UCCUGCUACAGCUUGCAUCAGUAUUUAGUUA | 0.015 ± 0.0065 | 0.00186 ± 0.0032 | 0.00219 ± 0.0025 | 0.000648 ± 0.01 | – |
| UCCUGGAUGAGCUUGCAUAGUAUUUUGAAA | 0.0223 ± 0.0096 | 0.00108 ± 0.006 | 0.00297 ± 0.003 | 0.00044 ± 0.016 | – |
| UCCUGGAUGUGCUUGCAUAGUAUUUACUAA | 0.00483 ± 0.0049 | 0.000836 ± 0.0065 | 0.146 ± 0.073 | 0.000975 ± 0.0098 | – |
| UCCUGGAACAGCUUGCAUAGUAUAUAGAUA | 0.0877 ± 0.022 | 0.0013 ± 0.0052 | 0.00205 ± 0.0026 | 0.000535 ± 0.017 | – |
| UCCUGGAUGAGGCUUGCAUAGUAUUUAGUUA | 0.186 ± 0.018 | 0.0125 ± 0.0036 | 0.0185 ± 0.0065 | 0.000901 ± 0.011 | – |
| UCCUGGAUGUGCUUGCUUAGUAUUAAGUUA | 0.0615 ± 0.017 | 0.00288 ± 0.0034 | 0.000676 ± 0.0067 | 0.000126 ± 0.095 | – |
| UCCUGGAACAGCUUGCAUAGUAUUUAGAAA | 0.0838 ± 0.015 | 0.00244 ± 0.0024 | 0.00395 ± 0.0012 | 0.000244 ± 0.022 | – |

A different layout for part of the listing above:
Sequence,"pre-steady-state target cleavage rate [1, 4]","pre-steady-state target cleavage rate [1, 5]","pre-steady-state target cleavage rate [2, 6]","pre-steady-state target cleavage rate [2, 7]",pre-steady-state target cleavage rate [3]
UCCUGGAACAGCUUGGAUAGUAUUUACUUA,0.0413 ± 0.012,0.00198 ± 0.0036,0.000665 ± 0.0039,0.000254 ± 0.026,–
UCCUGGUUGAGCUUGCAUAGUAUUUAGUAA,0.196 ± 0.022,0.00595 ± 0.0027,0.00604 ± 0.0023,0.000652 ± 0.018,–
UCCUGGUACAGCUAGCAUAGAAUUUAGUUA,0.313 ± 0.084,0.00285 ± 0.0039,0.000943 ± 0.01,0.000156 ± 0.054,–
UCCUGGAUCAGCUUGCAUAGUAUUGUAGUUA,0.176 ± 0.018,0.00992 ± 0.0032,0.00652 ± 0.0027,0.00172 ± 0.0059,–
UCCUGCUACUGCUUGCAUAGAAUUUAGUUA,0.045 ± 0.0093,0.00256 ± 0.002,0.00563 ± 0.002,0.000963 ± 0.0059,–
UCCUGGAUGUCGAUGCAUAGUAUUUAGAAA,0.0516 ± 0.015,0.00104 ± 0.0058,0.00216 ± 0.0032,0.000529 ± 0.011,–
UCCUGCUUCAGCAUGCAUAGUAUUUAGUUA,0.291 ± 0.015,0.0121 ± 0.0034,0.0186 ± 0.0047,0.000522 ± 0.011,–
UCCUGGAUGUCGAAGCAUAGUAUUCAGUUA,0.00908 ± 0.0042,0.000999 ± 0.0047,0.000266 ± 0.0094,0.000364 ± 0.016,–
UCCUGGUACAGCUUGCAUAGUAUUAUCAAA,0.0127 ± 0.0058,0.00149 ± 0.0038,0.00129 ± 0.0031,0.000346 ± 0.019,–
UCCUGCUACAGCUUGCAUCAGUAUUUAGUUA,0.015 ± 0.0065,0.00186 ± 0.0032,0.00219 ± 0.0025,0.000648 ± 0.01,–
UCCUGGAUGAGCUUGCAUAGUAUUUUGAAA,0.0223 ± 0.0096,0.00108 ± 0.006,0.00297 ± 0.003,0.00044 ± 0.016,–
UCCUGGAUGUGCUUGCAUAGUAUUUACUAA,0.00483 ± 0.0049,0.000836 ± 0.0065,0.146 ± 0.073,0.000975 ± 0.0098,–

Further results.

| Sequence | pre-steady-state target cleavage rate [1, 4] | pre-steady-state target cleavage rate [1, 5] | pre-steady-state target cleavage rate [2, 6] | pre-steady-state target cleavage rate [2, 7] | pre-steady-state target cleavage rate [3] |
| --- | --- | --- | --- | --- | --- |
| UCCUGGUACAGCUUGCAUAGUGAUUUAGUUA | 0.0336 ± 0.01 | 0.00917 ± 0.0038 | 0.000852 ± 0.0071 | 0.00093 ± 0.012 | – |
| UCCUCCUACAGCUAGCAUAGUAUUUAGUUA | 0.27 ± 0.019 | 0.00812 ± 0.0022 | 0.0119 ± 0.0038 | 0.000917 ± 0.0069 | – |
| UCCUCCUACAGGUUGCAUAGUAUUAAGUUA | 0.212 ± 0.027 | 0.00545 ± 0.0022 | 0.00576 ± 0.0023 | 0.000585 ± 0.011 | – |
| UCCUCCUACAGCUUGCAUAGUAUUUGGUUA | 0.279 ± 0.024 | 0.00706 ± 0.0026 | 0.00583 ± 0.0021 | 0.000736 ± 0.0094 | – |
| UCCUGGAUCAGCUAGCAUAGUAUUUAGAUA | 0.0957 ± 0.019 | 0.00275 ± 0.0026 | 0.00122 ± 0.0051 | 0.000418 ± 0.017 | – |
| UCCUGCUACAGCUUGCAUACUAUAUAGUUA | 0.0515 ± 0.015 | 0.00182 ± 0.004 | 0.00148 ± 0.0028 | 0.000187 ± 0.021 | – |
| UCCUGGAUCAGCUUACAUAGUAUUUAGUUA | 0.249 ± 0.014 | 0.00805 ± 0.0023 | 0.175 ± 0.039 | 0.000873 ± 0.01 | – |
| UCCUGGAUGUCCUUGGAUAGUAUUUAGUUA | 0.153 ± 0.021 | 0.00762 ± 0.0021 | 0.00248 ± 0.0031 | 0.000195 ± 0.026 | – |
| UCCUGCUACAGCUUGCAUAGUUUAUAGUUA | 0.0528 ± 0.017 | 0.00196 ± 0.003 | 0.00312 ± 0.0027 | 0.000984 ± 0.0064 | – |
| UCCUGCUACAGCUUGCAAUGUAUUUAGUAA | 0.124 ± 0.023 | 0.00251 ± 0.0029 | 0.000794 ± 0.0036 | 0.000511 ± 0.012 | – |
| UCCUGGAACAGCUAGCUUAGUAUUUAGUUA | 0.186 ± 0.015 | 0.0065 ± 0.0023 | 0.00846 ± 0.0037 | 0.000702 ± 0.0089 | – |
| UCCUGCUACAGCUUGCAUGUAUUUAGUUA | 0.104 ± 0.02 | 0.00362 ± 0.0023 | 0.00438 ± 0.0028 | 0.00116 ± 0.0074 | – |
| UCCUGGAUGAGCUUGUCAUAGUAUUUAGUUA | 0.0971 ± 0.013 | 0.00206 ± 0.0044 | 0.00721 ± 0.0027 | 0.00174 ± 0.0059 | – |
| UCCUGGUACAUGCUUGCAUAGUAUUUAGUUA | 0.131 ± 0.018 | 0.00627 ± 0.0036 | 0.0077 ± 0.0034 | 0.00427 ± 0.0043 | – |
| UCCUGGAUCAGCUUGCAUAGUAUUUAGAUUA | 0.0478 ± 0.011 | 0.00315 ± 0.0026 | 0.00483 ± 0.0016 | 0.00131 ± 0.0073 | – |
| UCCUGGAUGAGCUUGCAAAGAAUUUAGUUA | 0.00266 ± 0.004 | 0.00185 ± 0.0039 | 0.000556 ± 0.0071 | 0.000118 ± 0.034 | – |
| UCCUGGAUGUGCGUUGCAUAGUAUUUAGUUA | 0.145 ± 0.016 | 0.00925 ± 0.0032 | 0.00539 ± 0.0024 | 0.000939 ± 0.011 | – |
| UCCUGGAACAGCUUGCAUAGAUUUUAGUAA | 0.0259 ± 0.0091 | 0.00135 ± 0.0034 | 0.00282 ± 0.0032 | 0.000969 ± 0.011 | 0.00217 ± 0.0042 |
| UCCUGCUACAGCUUGCAUAGAAAUUAGUUA | 0.059 ± 0.015 | 0.00196 ± 0.0032 | 0.0026 ± 0.0021 | 0.000806 ± 0.0096 | – |
| UCCUGGAUGAGCUAGCAUAGUAUAUAGUUA | 0.242 ± 0.034 | 0.0046 ± 0.0022 | 0.00211 ± 0.0031 | 0.000515 ± 0.012 | – |
| UCCUGCUACAGCUUGCAAAGUAUUUAGUUA | 0.13 ± 0.012 | 0.00686 ± 0.0019 | 0.00608 ± 0.0019 | 0.000611 ± 0.0088 | – |
| UCCUGGAACGGCUUGCAUAGUAUUUAGUUA | 0.259 ± 0.017 | 0.0129 ± 0.0024 | 0.0243 ± 0.0075 | 0.000931 ± 0.013 | – |
